# According to publication PMC4996943:
# Results are given in words; binding and its absence hold for the method and conditions named. In cells and extracts the contact can be indirect. Some binding calls cover weakened binding; strength is not graded here.
# Assays:
# HisMax-p53 (human) = HisMax-p53 (human) (UniProt P04637); experiment: pull-down; HEK293T cells co-expressing HisMax-p53 and HA-EFP (or C13/16S) or Myc-HERC5; lysates in buffer-A with 10 mM imidazole; Ni2+-NTA agarose 1 h at 4 °C, washed with 20 mM imidazole; immunoblot with anti-HA or anti-Myc
# HA-EFP = HA-EFP (UniProt Q14258); experiment: co-IP; HEK293T cells co-expressing HA-EFP (or C13/16S) and HisMax-p53; lysates in buffer-A (50 mM Tris-HCl pH 7.4, 150 mM NaCl, 1 mM EDTA, 0.2% Triton X-100); immunoprecipitation with anti-HA antibody 1 h at 4 °C, protein A-Sepharose; immunoblot with anti-Xpress
# HA-EFP C13/16S = HA-EFP C13/16S (UniProt Q14258); experiment: as above
substance,measurement,setting,value
HA-EFP (from UniProt Q14258 1-630) (enzyme),binding,HisMax-p53 (human),binds
HisMax-p53 (from UniProt P04637 1-393),binding,HA-EFP,binds
same,binding,HA-EFP C13/16S,binds
HA-EFP C13/16S (from UniProt Q14258 1-630) (enzyme),binding,HisMax-p53 (human),binds
